According to the supplement of paper PMC3682954:
Values joined by “and” are separate entries in the source; they are usually repeats but may differ in a detail not shown here. Equal values may be shown once. Where a name gives a salt, the structure may show the parent alone. ± gives the standard deviation of the averaged measurements. The list shows a part of the results. Many values rest on one well or one pass, so single values are uncertain.

System: RAW 264.7
Assay: cell viability (MTT) relative to vehicle control; higher = more viable cells
Settings: stimulus: HMGB1 5 ug/ml, 18 h
[1] = compound concentration: 1 ug/ml

## c1ccc2sc(C3(N4CCCCC4)CCCCC3)cc2c1 [BTCP hydrochloride]
Compound concentration: 3 uM
  cell viability: 89.7%

## COc1cc(CC(C)N)c(OC)cc1I (racemic) [(±)-DOI hydrochloride]
Compound concentration: 3 uM
  cell viability: 91.8%

## C[N+]1(C)C2CCC1CC(OC(=O)c1c[nH]c3ccccc13)C2 (centres undefined) [3-Tropanylindole-3-carboxylate methiodide]
Compound concentration: 3 uM
  cell viability: 124%

## N#C/C(=C\c1ccc(O)c(O)c1)C(N)=S [Tyrphostin 47]
Compound concentration: 3 uM
  cell viability: 118%

## C[C@@H]1CN([C@H]2CC[C@](C#N)(c3ccc(F)cc3)CC2)CC[C@]1(C(=O)O)c1ccccc1 [Levocabastine hydrochloride]
Compound concentration: 3 uM
  cell viability: 87.1%

## C[C@@H]1CN([C@H]2CC[C@](C#N)(c3ccc(F)cc3)CC2)CC[C@]1(C(=O)O)c1ccccc1 [Levocabastine]
Compound concentration: 3 uM
  cell viability: 99%

## CCCC[N+]1(C)[C@@H]2C[C@@H](OC(=O)[C@H](CO)c3ccccc3)C[C@H]1[C@@H]1O[C@@H]12 (single isomer, unassigned; (-)) [(-)-Scopolamine,n-Butyl-, bromide]
Compound concentration: 3 uM
  cell viability: 118%

## COc1ccc(C(=O)OC2C[C@H]3CC[C@@H](C2)N3C)cc1OC (some centres undefined) [Convolamine hydrochloride]
Compound concentration: 3 uM
  cell viability: 113%

## CN1CC(CNC(=O)OCc2ccccc2)CC2c3cccc4c3c(cn4C)CC21 (centres undefined) [Metergoline phenylmethyl ester]
[1]
  cell viability: 97.9%

## CCC1(CC)C(=O)NC(=O)NC1=O
Compound concentration: 3 uM
  cell viability: 101%

## C=CCC1(CC(C)C)C(=O)NC(=O)NC1=O [Butalbital]
Compound concentration: 3 uM
  cell viability: 115%

## O=C(CCCN1CCC(n2c(=O)[nH]c3ccccc32)CC1)c1ccc(F)cc1 [Benperidol]
Compound concentration: 3 uM
  cell viability: 102%

## O=C1CCO1
Compound concentration: 3 uM
  cell viability: 87.5 ± 4.3%

## C[C@@H]1CC[C@]2(NC1)O[C@H]1C[C@H]3[C@@H]4CC=C5C[C@@H](O)CC[C@]5(C)[C@H]4CC[C@]3(C)[C@H]1[C@@H]2C [Solasodine]
[1]
  cell viability: 93.5%

## CN[C@@H]1[C@H]2[C@@H]3CCN2C[C@H]1O3 [Loline]
[1]
  cell viability: 84.3%

## COc1ccc(OC)c(C(O)C(C)N)c1 (centres undefined)
Compound concentration: 3 uM
  cell viability: 109%

## COc1ccc(OC)c(C(O)C(C)N)c1 (centres undefined) [Methoxamine hydrochloride]
Compound concentration: 3 uM
  cell viability: 90.1 ± 14%

## Cc1ccc2[nH]cc(CCN)c2c1 [5-Methyltryptamine Hydrochloride]
[1]
  cell viability: 101%

## CCC(=O)O[C@H]1CC[C@H]2[C@@H]3CCC4=CC(=O)CC[C@]4(C)[C@H]3CC[C@]12C [Testosterone propionate]
Compound concentration: 3 uM
  cell viability: 143%

## CCC(=O)O[C@H]1CC[C@H]2[C@@H]3CCC4=CC(=O)CC[C@]4(C)[C@H]3CC[C@]12C
Compound concentration: 3 uM
  cell viability: 112%

## C/C(O)=C(\C#N)C(=O)Nc1cc(Br)ccc1Br
Compound concentration: 3 uM
  cell viability: 108%

## CCN1CC2(COC(=O)c3ccccc3N3C(=O)CC(C)C3=O)CC[C@H](OC)[C@@]34C5C[C@@H]6[C@@H](OC)C[C@@](O)(C5[C@H]6OC)[C@](O)([C@@H](OC)C23)[C@@H]14.[O-][Cl+3]([O-])([O-])O (some centres undefined)
[1]
  cell viability: 96.8%

## CCCC(C)(COC(N)=O)COC(=O)NC(C)C (centres undefined)
Compound concentration: 3 uM
  cell viability: 108%

## CCCC(C)(COC(N)=O)COC(=O)NC(C)C (centres undefined) [Carisoprodol]
Compound concentration: 3 uM
  cell viability: 109 ± 9.2%

## CCC1(C)CC(=O)NC(=O)C1 [Bemegride]
Compound concentration: 3 uM
  cell viability: 118%

## C[C@@]12C(=O)OC(=O)[C@]1(C)[C@H]1CC[C@@H]2O1
Compound concentration: 3 uM
  cell viability: 20.9%

## C[C@@]12C(=O)OC(=O)[C@]1(C)[C@H]1CC[C@@H]2O1 [Cantharidin]
[1]
  cell viability: 33.5%
Compound concentration: 3 uM
  cell viability: 30.5 ± 6.4%

## COC(C)(C)CCC[C@H](C)C/C=C/C(C)=C/C(=O)OC(C)C
Compound concentration: 3 uM
  cell viability: 105 ± 5.9%

## Cl[C@H]1[C@H](Cl)[C@@H](Cl)[C@@H](Cl)[C@H](Cl)[C@H]1Cl
Compound concentration: 3 uM
  cell viability: 115%

## Oc1ccc(Cl)cc1Cc1cc(Cl)ccc1O
Compound concentration: 3 uM
  cell viability: 98.9%

## OC(c1ccccc1)(c1ccccc1)C1CCNCC1 [Azacyclonol]
Compound concentration: 3 uM
  cell viability: 102%

## CC[C@H]1CN2CC[C@H]1C[C@@H]2[C@@H](O)c1ccnc2ccccc12 [Hydrocinchonine]
[1]
  cell viability: 96.9%

## NC(=O)OCCCc1ccccc1
Compound concentration: 3 uM
  cell viability: 94.2%

## NC1CCc2cc(O)c(O)cc2C1 (centres undefined) [6,7-ADTN hydrobromide]
Compound concentration: 3 uM
  cell viability: 101%

## N[C@@H]1C[C@H]1c1ccccc1.N[C@H]1C[C@@H]1c1ccccc1 [Tranylcypromine]
Compound concentration: 3 uM
  cell viability: 114%

## N[C@@H]1C[C@H]1c1ccccc1.N[C@H]1C[C@@H]1c1ccccc1
Compound concentration: 3 uM
  cell viability: 112%

## NC(CP(=O)(O)O)C(=O)O (racemic) [(±)-2-Amino-3-phosphonopropionic acid]
Compound concentration: 3 uM
  cell viability: 102%

## CN1CC2C[C@@H](C1)Cn1c2cccc1=O
[1]
  cell viability: 102%

## N=C(NCc1ccc(Cl)cc1)SCCCc1c[nH]cn1 [Clobenpropit]
Compound concentration: 3 uM
  cell viability: 103%

## C[N+]1(C)CCCC(OC(=O)C(O)(c2ccccc2)c2ccccc2)C1 (centres undefined) [Mepenzolate bromide]
Compound concentration: 3 uM
  cell viability: 109%

## C[N+]1(C)CCCC(OC(=O)C(O)(c2ccccc2)c2ccccc2)C1 (centres undefined)
Compound concentration: 3 uM
  cell viability: 97.5%

## COc1cc(N)c(Cl)cc1C(=O)NC1CN2CCC1CC2 (centres undefined) [Zacopride]
Compound concentration: 3 uM
  cell viability: 95.2%

## O=C1C=CC(=O)C=C1 [p-Benzoquinone]
Compound concentration: 3 uM
  cell viability: 110%

## COc1ccc2c(c1OC)C(=O)OC2C1c2cc3c(cc2CCN1C)OCO3 (single isomer, unassigned; (+)) [(+)-Hydrastine]
Compound concentration: 3 uM
  cell viability: 107%

## CC(=O)[C@H]1CC[C@H]2[C@@H]3CC[C@H]4C[C@H](O)CC[C@]4(C)[C@H]3C(=O)C[C@]12C [Alfaxalone]
Compound concentration: 3 uM
  cell viability: 78.4%

## CC(=O)[C@H]1CC[C@H]2[C@@H]3CC[C@H]4C[C@H](O)CC[C@]4(C)[C@H]3C(=O)C[C@]12C [5alpha-Pregnan-3alpha-ol-11,20-dione]
Compound concentration: 3 uM
  cell viability: 99.2%

## CC(=O)c1c(O)c(C)c(O)c(Cc2c(O)c3c(c(C(=O)/C=C/c4ccccc4)c2O)OC(C)(C)C=C3)c1O [Rottlerin]
[1]
  cell viability: 77.1%
Compound concentration: 3 uM
  cell viability: 98.6%

## COc1ccccc1N1CCNCC1 [1-(2-Methoxyphenyl)piperazine hydrochloride]
Compound concentration: 3 uM
  cell viability: 116%

## C=C1[C@@H](C)[C@H]2[C@H](Cc3ccccc3)NC(=O)[C@]23[C@H](OC(C)=O)/C=C/[C@@](C)(O)C(=O)[C@@H](C)C/C=C/[C@H]3[C@@H]1O
Compound concentration: 3 uM
  cell viability: 95%

## O=CN1C[C@@H]2C[C@H](C1)c1cccc(=O)n1C2
[1]
  cell viability: 97.8%

## C=C1C[C@@H]2[C@H](CC[C@]3(C)C(=O)CC[C@@H]23)[C@@]2(C)C=CC(=O)C=C12 [Exemestane]
Compound concentration: 3 uM
  cell viability: 110%

## C=C1C[C@@H]2[C@H](CC[C@]3(C)C(=O)CC[C@@H]23)[C@@]2(C)C=CC(=O)C=C12
Compound concentration: 3 uM
  cell viability: 105 ± 1.9%

## O=C1c2ccccc2C(=O)N1CCN1CC2CC(C1)c1cccc(=O)n1C2 (centres undefined)
[1]
  cell viability: 95.1% and 85%

## O=C(O)c1cc[c]([Hg][Cl])cc1 [4-Chloromercuribenzoic acid]
Compound concentration: 3 uM
  cell viability: 108%

## FC(F)(F)c1cccc(N2CCNCC2)c1
Compound concentration: 3 uM
  cell viability: 99.4%

## CC1=NN=C(c2ccc(N)cc2)c2cc3c(cc2C1)OCO3
Compound concentration: 3 uM
  cell viability: 107%

## C[C@]12C/C(=C/O)C(=O)C[C@@H]1CC[C@@H]1[C@@H]2CC[C@@]2(C)[C@H]1CC[C@]2(C)O [Oxymetholone]
Compound concentration: 3 uM
  cell viability: 104%

## CC(C)=CCC[C@]1(C)C=Cc2c(O)c3c(c(CC=C(C)C)c2O1)O[C@]12C(=C[C@@H]4C[C@H]1C(C)(C)O[C@@]2(C/C=C(/C)C(N)=O)C4=O)C3=O
Compound concentration: 3 uM
  cell viability: 3.46%

## COP(=S)(OC)Oc1ccc(Sc2ccc(OP(=S)(OC)OC)cc2)cc1
Compound concentration: 3 uM
  cell viability: 111%

## CC(C)CC1C(=O)N2CCCC2C2(O)OC(NC(=O)C3C=C4c5cccc6[nH]cc(c56)CC4N(C)C3)(C(C)C)C(=O)N12 (stereo not drawn) [alpha-Ergocryptine]
[1]
  cell viability: 103%

## CC1=C(C2=C(C)C(=O)c3c(c(C=O)c(O)c(O)c3C(C)C)C2=O)C(=O)c2c(C=O)c(O)c(O)c(C(C)C)c2C1=O [Gossypolone]
[1]
  cell viability: 119%

## CCOP(=S)(OCC)Oc1nc(Cl)c(Cl)cc1Cl
Compound concentration: 3 uM
  cell viability: 96.8%

## CCCN1CCO[C@@H]2c3cc(O)ccc3OC[C@H]21 [S(+)-PD 128,907 hydrochloride]
Compound concentration: 3 uM
  cell viability: 101%

## CCCN1CCO[C@@H]2c3cc(O)ccc3OC[C@H]21 (racemic) [(±)-PD 128,907 hydrochloride]
Compound concentration: 3 uM
  cell viability: 90.2%

## c1ccc2c3c([nH]c2c1)CNCC3
Compound concentration: 3 uM
  cell viability: 98%

## CCCCCCCCCCCCCCCC[n+]1ccccc1
Compound concentration: 3 uM
  cell viability: 90.3%

## C=CCC1(C(C)CCC)C(=O)NC(=S)NC1=O (centres undefined)
Compound concentration: 3 uM
  cell viability: 98%

## C[C@@H]1O[C@@H](O[C@H]2C[C@@H](O)[C@]3(CO)[C@H]4[C@H](O)C[C@]5(C)[C@@H]([C@@H]6COC(=O)C6)CC[C@]5(O)[C@@H]4CC[C@]3(O)C2)[C@H](O)[C@H](O)[C@H]1O [Dihydroouabain]
Compound concentration: 3 uM
  cell viability: 112%

## NCC(O)c1cccc(O)c1 (racemic) [DL-Norphenylephrine hydrochloride]
[1]
  cell viability: 91.2%

## O=C(O)[C@@H]1CCN1 [L-azetidine-2-carboxylic acid]
Compound concentration: 3 uM
  cell viability: 101%

## CC(=O)NC1CCSC1=O (centres undefined)
Compound concentration: 3 uM
  cell viability: 113%

## O=C(O)Cc1cnc[nH]1 [Imidazole-4-acetic acid hydrochloride]
Compound concentration: 3 uM
  cell viability: 104%

## CNC(=O)Oc1ccccc1OC(C)C
Compound concentration: 3 uM
  cell viability: 113%

## C[C@]12COC(=O)C[C@@H]1CC[C@@H]1[C@@H]2CC[C@@]2(C)[C@H]1CC[C@]2(C)O [Oxandrolone]
Compound concentration: 3 uM
  cell viability: 92%

## CCCn1c(C)c(C(=O)c2cccc3ccccc23)c2ccccc21
Compound concentration: 3 uM
  cell viability: 96%

## O=P1(N(CCCl)CCCl)NCCCO1 (centres undefined) [Cyclophosphamide]
Compound concentration: 3 uM
  cell viability: 107 ± 6%

## O=P1(N(CCCl)CCCl)NCCCO1 (centres undefined)
Compound concentration: 3 uM
  cell viability: 100.9 ± 0.16%

## O=P1(N(CCCl)CCCl)NCCCO1 (centres undefined) [Cyclophosphamide monohydrate]
Compound concentration: 3 uM
  cell viability: 95.6%

## c1ccc2c(c1)sc1ccccc12
Compound concentration: 3 uM
  cell viability: 97.465 ± 0.092%

## CC(=O)OCC1=C(C(=O)[O-])N2C(=O)[C@@H](NC(=O)CCC[C@@H](N)C(=O)[O-])[C@H]2SC1.[Zn+2] [Cephalosporin C zinc salt]
Compound concentration: 3 uM
  cell viability: 102%

## CN1C(=O)CCS(=O)(=O)C1c1ccc(Cl)cc1 (centres undefined)
Compound concentration: 3 uM
  cell viability: 110%

## CN1C(=O)CCS(=O)(=O)C1c1ccc(Cl)cc1 (centres undefined) [Chlormezanone]
Compound concentration: 3 uM
  cell viability: 98.7 ± 5.7%
